No constants are given. Whether binding was seen depends on the method and setting. Binding seen in cells or lysates may run through a third protein. Some results given as binding are weak or reduced against the parent protein; the word gives no strength. Where a sequence is shown, tags or fusion partners need not be part of it.
Tests used:
[1] = biological target: T1, His-tag recombinant human kallistatin (human) (UniProt P29622); test: co-IP; NCI-H446 cells treated with kallistatin for 8 h; lysates immunoprecipitated with anti-kallistatin antibody and protein A beads, immunoblot for integrin β3; cells without kallistatin as control; only the target purified
T1 sequence: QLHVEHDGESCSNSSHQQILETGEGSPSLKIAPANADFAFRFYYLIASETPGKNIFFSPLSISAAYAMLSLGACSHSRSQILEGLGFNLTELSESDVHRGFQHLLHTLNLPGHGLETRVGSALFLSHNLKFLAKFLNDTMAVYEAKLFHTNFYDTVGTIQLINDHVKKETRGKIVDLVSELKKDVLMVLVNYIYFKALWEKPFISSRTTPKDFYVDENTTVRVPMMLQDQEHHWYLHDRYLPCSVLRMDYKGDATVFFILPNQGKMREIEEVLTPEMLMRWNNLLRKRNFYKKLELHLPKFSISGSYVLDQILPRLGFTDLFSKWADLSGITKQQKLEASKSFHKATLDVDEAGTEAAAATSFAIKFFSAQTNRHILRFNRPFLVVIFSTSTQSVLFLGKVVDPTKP

The chains behind the UniProt entries cited, without tags or fusion partners. Residues count along the entry.
UniProt P05106, residues 27-788: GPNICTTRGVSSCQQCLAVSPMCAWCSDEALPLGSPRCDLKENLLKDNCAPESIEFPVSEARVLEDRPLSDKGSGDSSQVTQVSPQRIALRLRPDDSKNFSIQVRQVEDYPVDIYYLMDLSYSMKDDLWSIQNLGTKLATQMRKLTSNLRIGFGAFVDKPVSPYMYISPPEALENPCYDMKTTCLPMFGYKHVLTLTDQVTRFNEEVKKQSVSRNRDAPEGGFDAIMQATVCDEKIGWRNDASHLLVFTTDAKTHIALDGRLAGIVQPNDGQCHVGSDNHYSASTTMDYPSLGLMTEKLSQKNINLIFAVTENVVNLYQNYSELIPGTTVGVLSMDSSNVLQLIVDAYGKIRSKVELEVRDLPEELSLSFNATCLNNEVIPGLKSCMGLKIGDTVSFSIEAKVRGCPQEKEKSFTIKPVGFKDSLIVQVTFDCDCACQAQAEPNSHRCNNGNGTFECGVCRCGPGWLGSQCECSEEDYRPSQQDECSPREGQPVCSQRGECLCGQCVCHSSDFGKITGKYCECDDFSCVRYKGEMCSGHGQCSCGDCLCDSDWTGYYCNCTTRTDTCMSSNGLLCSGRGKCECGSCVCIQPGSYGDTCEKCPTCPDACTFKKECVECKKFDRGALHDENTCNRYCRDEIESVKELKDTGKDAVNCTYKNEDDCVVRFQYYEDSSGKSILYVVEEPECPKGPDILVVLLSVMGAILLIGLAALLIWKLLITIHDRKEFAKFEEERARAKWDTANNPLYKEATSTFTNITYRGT

[2] = biological target: T1, His-tag recombinant human kallistatin (human); test: pull-down; His-kallistatin on Ni-NTA affinity beads incubated with Triton X-100-released membrane proteins (10 mg) of NCI-H446 cells, 16 h at 4 °C; washed with PBS, eluted fractions immunoblotted; empty Ni-NTA beads as control; only the target purified
[3] = biological target: integrin β3 (human (endogenous in NCI-H446)) (UniProt P05106); test: co-IP; NCI-H446 cells treated with kallistatin for 8 h; lysates immunoprecipitated with anti-integrin β3 antibody, immunoblot for kallistatin; cells without kallistatin as control; only the binder purified

Q: Which results are given for “integrin β3 (from UniProt P05106 27-788) (receptor)”?
A: binding [1]: binds; binding [2]: binds

B1: His-tag recombinant human kallistatin (protein, UniProt P29622 21-427)
chain: T1 sequence
Q: Which binding [3] does the source give for B1 here?
A: binds
